The other results are listed elsewhere or left out.
What was measured:
Assay in all cases: log2 fold change, soluble protein after heating vs DMSO (PISA); higher = thermal stabilisation; K562 cells, 10 uM, 30 min; active = over 0.2 and 3.5 SD of the protein, either way, in both replicates (recomputed)
[1] = compound: COC1=CC=C(C=C1)CN2C=CC3=C2C=C(C=C3)C(=O)NO
Method in brief: (§1)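 Soluble protein was quantified by TMTpro 16plex LC-MS/MS after channel sums were equalised. It was obtained as the supernatant after 21,000xg for 90 min from pooled aliquots of K562 cells (2×10^6 cells/mL, 10 μM compound, 30 min) heated for 3 min across 48°C-58°C and extracted in PBS with 0.5% NP-40 at 4°C. Thermal stability values are relative to control samples and come from duplicates. They are given as log2 fold changes.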

Amino acid sequences for entries named in this document (tags omitted). A change or cut given only in a name is not applied to a line headed by its entry.
UniProt O96011, whole entry, looked up, stated change not applied: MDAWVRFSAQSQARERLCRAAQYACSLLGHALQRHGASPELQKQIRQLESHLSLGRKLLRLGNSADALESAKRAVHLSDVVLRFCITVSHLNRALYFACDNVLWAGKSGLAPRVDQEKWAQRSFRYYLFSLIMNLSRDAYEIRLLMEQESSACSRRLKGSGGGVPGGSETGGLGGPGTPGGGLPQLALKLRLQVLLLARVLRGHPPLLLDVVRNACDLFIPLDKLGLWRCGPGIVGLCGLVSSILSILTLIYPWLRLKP
UniProt Q96GD0: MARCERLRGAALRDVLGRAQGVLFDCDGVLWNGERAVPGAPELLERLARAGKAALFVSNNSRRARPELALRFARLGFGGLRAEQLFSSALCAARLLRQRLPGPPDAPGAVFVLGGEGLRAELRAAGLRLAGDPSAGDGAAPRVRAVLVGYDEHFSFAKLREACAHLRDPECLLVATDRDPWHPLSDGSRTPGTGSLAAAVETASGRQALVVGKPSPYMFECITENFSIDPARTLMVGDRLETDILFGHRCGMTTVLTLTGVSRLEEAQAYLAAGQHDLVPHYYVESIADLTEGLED
UniProt Q13153, whole entry, looked up: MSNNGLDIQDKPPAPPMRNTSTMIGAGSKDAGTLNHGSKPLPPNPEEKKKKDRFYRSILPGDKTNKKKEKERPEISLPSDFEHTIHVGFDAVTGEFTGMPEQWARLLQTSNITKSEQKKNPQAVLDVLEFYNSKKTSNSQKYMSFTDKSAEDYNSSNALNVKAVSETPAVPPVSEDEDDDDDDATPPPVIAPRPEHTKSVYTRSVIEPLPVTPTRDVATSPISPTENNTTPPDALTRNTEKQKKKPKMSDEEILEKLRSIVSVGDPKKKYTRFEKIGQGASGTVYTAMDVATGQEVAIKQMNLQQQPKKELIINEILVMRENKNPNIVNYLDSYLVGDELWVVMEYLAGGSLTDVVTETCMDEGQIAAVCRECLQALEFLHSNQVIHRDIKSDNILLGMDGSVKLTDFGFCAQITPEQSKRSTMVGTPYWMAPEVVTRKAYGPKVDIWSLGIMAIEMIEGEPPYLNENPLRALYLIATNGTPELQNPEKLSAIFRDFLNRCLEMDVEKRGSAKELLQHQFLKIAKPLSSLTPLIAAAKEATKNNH
UniProt Q15365, whole entry, looked up: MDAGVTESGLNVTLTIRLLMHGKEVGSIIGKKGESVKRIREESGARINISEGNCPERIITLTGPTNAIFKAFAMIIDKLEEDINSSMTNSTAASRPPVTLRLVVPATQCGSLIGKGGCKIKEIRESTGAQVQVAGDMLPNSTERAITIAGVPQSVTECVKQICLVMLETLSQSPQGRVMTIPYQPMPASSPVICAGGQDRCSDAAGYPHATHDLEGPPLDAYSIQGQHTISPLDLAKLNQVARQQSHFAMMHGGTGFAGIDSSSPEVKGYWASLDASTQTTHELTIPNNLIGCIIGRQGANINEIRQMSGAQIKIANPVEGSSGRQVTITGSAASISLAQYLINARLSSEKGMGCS
UniProt P05166: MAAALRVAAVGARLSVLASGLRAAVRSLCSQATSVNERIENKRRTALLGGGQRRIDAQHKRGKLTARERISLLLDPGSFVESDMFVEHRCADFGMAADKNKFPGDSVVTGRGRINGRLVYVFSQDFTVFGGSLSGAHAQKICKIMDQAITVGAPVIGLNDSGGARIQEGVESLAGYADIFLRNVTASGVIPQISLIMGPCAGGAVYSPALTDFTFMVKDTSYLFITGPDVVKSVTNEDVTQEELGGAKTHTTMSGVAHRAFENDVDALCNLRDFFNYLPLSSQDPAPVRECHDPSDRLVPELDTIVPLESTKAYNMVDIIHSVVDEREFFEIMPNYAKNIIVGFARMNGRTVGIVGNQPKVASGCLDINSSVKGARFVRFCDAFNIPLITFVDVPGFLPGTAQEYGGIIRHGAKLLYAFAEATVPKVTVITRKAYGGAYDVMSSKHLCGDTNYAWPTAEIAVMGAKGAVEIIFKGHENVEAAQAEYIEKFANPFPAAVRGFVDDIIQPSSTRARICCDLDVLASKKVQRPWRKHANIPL
UniProt Q9NTI5: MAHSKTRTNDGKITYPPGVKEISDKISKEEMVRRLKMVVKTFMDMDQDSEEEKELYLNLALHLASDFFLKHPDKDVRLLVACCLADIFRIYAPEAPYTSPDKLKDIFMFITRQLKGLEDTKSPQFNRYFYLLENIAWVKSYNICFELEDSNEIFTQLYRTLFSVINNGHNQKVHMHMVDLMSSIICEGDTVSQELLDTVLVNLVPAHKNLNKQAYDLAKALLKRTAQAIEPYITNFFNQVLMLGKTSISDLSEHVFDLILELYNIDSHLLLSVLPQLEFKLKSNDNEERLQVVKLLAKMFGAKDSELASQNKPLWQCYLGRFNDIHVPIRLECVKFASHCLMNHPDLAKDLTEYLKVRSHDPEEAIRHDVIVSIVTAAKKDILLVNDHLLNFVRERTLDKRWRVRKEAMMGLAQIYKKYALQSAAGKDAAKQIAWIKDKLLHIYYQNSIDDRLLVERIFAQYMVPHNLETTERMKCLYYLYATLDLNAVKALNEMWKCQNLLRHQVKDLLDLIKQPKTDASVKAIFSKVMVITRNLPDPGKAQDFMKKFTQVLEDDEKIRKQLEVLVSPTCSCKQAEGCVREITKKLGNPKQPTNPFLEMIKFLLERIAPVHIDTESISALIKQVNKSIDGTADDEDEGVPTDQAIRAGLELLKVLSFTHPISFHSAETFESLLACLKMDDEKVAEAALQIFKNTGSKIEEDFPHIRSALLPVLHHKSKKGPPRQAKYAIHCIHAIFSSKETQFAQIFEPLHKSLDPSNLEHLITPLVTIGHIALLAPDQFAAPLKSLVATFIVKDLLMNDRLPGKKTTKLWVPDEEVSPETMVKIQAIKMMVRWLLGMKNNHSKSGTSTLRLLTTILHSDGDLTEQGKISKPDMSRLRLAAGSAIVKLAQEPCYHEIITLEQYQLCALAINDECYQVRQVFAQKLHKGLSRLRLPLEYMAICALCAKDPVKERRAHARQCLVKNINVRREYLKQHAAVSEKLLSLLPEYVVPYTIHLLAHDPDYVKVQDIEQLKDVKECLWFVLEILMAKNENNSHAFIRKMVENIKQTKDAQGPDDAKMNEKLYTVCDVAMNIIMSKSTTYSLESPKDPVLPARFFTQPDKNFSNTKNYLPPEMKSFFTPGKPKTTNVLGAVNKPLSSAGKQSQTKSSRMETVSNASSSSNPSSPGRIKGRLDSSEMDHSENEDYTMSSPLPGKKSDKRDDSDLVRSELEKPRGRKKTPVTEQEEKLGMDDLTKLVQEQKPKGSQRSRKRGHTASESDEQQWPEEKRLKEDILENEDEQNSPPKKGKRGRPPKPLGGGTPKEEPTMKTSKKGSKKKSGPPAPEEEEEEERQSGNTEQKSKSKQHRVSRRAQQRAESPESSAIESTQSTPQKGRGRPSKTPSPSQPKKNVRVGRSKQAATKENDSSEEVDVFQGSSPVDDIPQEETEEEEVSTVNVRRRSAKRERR
UniProt Q5T2R2: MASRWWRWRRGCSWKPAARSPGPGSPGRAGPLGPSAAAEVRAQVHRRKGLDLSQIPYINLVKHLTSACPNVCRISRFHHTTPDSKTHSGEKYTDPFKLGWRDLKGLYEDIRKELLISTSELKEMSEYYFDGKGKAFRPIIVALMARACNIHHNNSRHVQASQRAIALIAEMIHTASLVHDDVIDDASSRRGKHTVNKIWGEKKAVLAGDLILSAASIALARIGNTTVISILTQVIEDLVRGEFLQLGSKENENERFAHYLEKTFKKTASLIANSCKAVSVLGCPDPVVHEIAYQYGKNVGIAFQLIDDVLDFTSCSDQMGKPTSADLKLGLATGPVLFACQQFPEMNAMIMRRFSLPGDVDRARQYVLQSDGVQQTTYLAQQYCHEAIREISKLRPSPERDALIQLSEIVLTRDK
UniProt Q9UKL6: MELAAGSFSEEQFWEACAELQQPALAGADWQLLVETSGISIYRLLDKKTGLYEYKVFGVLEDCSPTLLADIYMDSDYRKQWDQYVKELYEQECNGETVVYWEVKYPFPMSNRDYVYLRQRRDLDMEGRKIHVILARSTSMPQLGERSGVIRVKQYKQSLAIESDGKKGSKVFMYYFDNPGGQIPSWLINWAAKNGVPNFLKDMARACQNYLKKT
UniProt O96013: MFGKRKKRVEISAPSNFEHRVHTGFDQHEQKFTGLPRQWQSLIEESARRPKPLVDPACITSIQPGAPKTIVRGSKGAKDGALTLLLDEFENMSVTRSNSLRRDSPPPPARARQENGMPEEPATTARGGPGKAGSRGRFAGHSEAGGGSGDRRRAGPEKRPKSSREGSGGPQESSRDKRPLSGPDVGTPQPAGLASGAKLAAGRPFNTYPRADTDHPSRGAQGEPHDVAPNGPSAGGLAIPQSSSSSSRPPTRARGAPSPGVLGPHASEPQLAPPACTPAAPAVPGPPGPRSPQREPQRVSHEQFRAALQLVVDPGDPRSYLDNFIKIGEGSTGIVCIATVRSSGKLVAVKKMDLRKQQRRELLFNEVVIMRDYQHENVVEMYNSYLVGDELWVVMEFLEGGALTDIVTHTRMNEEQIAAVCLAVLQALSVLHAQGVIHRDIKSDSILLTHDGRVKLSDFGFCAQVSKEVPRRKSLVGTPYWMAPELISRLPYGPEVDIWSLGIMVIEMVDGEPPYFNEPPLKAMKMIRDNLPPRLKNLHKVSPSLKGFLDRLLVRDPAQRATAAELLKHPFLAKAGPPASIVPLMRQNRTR
UniProt O75914, whole entry, looked up: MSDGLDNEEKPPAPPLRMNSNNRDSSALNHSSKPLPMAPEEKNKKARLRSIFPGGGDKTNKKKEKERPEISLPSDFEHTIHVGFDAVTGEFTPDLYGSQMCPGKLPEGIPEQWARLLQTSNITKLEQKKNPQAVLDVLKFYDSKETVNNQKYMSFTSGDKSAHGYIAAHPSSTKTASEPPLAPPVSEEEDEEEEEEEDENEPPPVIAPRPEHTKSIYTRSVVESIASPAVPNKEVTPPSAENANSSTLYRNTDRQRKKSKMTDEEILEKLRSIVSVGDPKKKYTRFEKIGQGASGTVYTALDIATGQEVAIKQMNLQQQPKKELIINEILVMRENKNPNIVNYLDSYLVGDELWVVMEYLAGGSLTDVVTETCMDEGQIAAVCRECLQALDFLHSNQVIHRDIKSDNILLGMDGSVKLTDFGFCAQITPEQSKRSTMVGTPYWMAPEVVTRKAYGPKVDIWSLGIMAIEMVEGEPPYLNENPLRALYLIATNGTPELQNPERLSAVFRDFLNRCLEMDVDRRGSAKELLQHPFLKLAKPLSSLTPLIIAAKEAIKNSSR
UniProt O43933: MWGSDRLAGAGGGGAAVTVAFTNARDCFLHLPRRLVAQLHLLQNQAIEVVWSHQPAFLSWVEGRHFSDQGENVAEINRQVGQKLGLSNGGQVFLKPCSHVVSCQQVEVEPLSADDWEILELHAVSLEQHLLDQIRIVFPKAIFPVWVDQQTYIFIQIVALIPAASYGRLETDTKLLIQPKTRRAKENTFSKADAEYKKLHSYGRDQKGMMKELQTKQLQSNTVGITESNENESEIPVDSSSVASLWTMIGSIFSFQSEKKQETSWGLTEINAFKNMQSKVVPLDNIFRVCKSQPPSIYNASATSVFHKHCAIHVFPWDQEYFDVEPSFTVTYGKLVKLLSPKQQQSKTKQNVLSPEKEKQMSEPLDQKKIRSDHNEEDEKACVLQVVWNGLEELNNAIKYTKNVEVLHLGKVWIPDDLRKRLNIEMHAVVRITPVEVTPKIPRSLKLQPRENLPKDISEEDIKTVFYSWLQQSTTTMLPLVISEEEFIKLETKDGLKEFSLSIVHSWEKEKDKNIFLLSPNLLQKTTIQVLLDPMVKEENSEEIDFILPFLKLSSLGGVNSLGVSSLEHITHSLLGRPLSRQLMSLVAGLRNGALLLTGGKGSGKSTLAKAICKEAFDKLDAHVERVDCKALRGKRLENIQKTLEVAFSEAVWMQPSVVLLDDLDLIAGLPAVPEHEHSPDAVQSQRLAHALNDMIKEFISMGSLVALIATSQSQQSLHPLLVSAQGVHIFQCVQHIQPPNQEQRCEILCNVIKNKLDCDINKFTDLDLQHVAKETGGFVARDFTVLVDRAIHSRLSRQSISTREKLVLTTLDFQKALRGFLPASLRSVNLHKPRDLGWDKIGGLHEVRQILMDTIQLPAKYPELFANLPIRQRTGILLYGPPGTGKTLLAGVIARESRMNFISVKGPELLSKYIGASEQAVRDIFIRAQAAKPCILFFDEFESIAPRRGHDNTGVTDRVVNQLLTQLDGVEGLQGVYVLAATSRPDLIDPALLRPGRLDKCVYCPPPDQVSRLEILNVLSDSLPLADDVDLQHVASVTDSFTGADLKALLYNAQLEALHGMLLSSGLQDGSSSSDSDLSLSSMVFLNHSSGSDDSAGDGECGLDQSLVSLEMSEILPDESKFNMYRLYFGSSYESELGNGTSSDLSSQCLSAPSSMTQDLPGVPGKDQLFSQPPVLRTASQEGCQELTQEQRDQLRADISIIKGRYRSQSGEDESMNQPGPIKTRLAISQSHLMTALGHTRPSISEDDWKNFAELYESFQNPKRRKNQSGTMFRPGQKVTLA

[2] = compound: CON(C)C(=O)N1N=C(c2cc(F)ccc2F)S[C@@]1(CCCN)c1ccccc1 [filanesib]
Method in brief: as §1

[3] = compound: CO[C@H]1C[C@@H]2CC[C@@H](C)[C@@](O)(O2)C(=O)C(=O)N2CCCC[C@H]2C(=O)O[C@H]([C@H](C)C[C@@H]2CC[C@H](n3cnnn3)[C@H](OC)C2)CC(=O)[C@H](C)/C=C(\C)[C@@H](O)[C@@H](OC)C(=O)[C@H](C)C[C@H](C)/C=C/C=C/C=C/1C [zotarolimus]
Method in brief: as §1

[4] = compound: COc1cc(C(=O)O)ccc1NC(=O)[C@@H]1N[C@@H](CC(C)(C)C)[C@](C#N)(c2ccc(Cl)cc2F)[C@H]1c1cccc(Cl)c1F [idasanutlin]
Method in brief: as §1

[5] = compound: COc1cc(Nc2ncc3c(n2)-c2ccc(Cl)cc2C(c2c(F)cccc2OC)=NC3)ccc1C(=O)O [alisertib]
Method in brief: as §1

[6] = compound: COc1cc2nc(-c3cc(F)ccc3O)nc(N[C@@H]3CNC[C@H]3C(C)(C)O)c2cc1OC
Method in brief: as §1

[7] = compound: COc1cc2ncnc(Nc3ccc(F)c(Cl)c3)c2cc1OCCCN1CCOCC1 [gefitinib]
Method in brief: as §1

[8] = compound: COc1cccc2cc(-c3nc([C@H]4CC[C@H](C(=O)O)CC4)n4ncnc(N)c34)[nH]c12
Method in brief: as §1

[9] = compound: CS(=O)(=O)CCNCc1ccc(-c2ccc3ncnc(Nc4ccc(OCc5cccc(F)c5)c(Cl)c4)c3c2)o1 [lapatinib]
Method in brief: as §1

[10] = compound: CS(=O)(=O)N1CCN(Cc2cc3nc(-c4cccc5[nH]ncc45)nc(N4CCOCC4)c3s2)CC1 [pictilisib]
Method in brief: as §1

[11] = compound: CS(=O)(=O)c1ccc(-c2cnc(N)c(C(=O)Nc3ccccc3)n2)cc1
Method in brief: as §1

[12] = compound: C[C@@H](Oc1cc(-c2cnn(C3CCNCC3)c2)cnc1N)c1c(Cl)ccc(F)c1Cl [crizotinib]
Method in brief: as §1

[13] = compound: C[C@@H]1COCCN1C2=NC(=NC(=C2)C3(CC3)S(=O)(=O)C)C4=C5C=CNC5=CC=C4
Method in brief: as §1

[14] = compound: C[C@H](C1=CC=C(C=C1)C(=O)NC2=C3C=CNC3=NC=C2)N
Method in brief: as §1

[15] = compound: Cc1cc(Nc2cc(CN3CCOCC3)c3nc(C)c(Cc4ccc(Cl)cc4F)n3n2)n[nH]1 [gandotinib]
Method in brief: as §1

[16] = compound: Cc1cc(SCc2sc(-c3ccc(C(F)(F)F)cc3)nc2C)ccc1OCC(=O)O
Method in brief: as §1

[17] = compound: Cc1ccc(-n2nc(C(C)(C)C)cc2NC(=O)Nc2ccc(OCCN3CCOCC3)c3ccccc23)cc1 [doramapimod]
Method in brief: as §1

[18] = compound: Cc1ccc(C(=O)N(CCCN)[C@@H](c2nc3cc(Cl)ccc3c(=O)n2Cc2ccccc2)C(C)C)cc1 [ispinesib]
Method in brief: as §1

[19] = compound: C[C@H](Nc1ncnc2nc[nH]c12)c1cc2cccc(Cl)c2c(=O)n1-c1ccccc1 [duvelisib]
Method in brief: as §1

[20] = compound: Cc1cc(Nc2cc(N3CCN(C)CC3)nc(Sc3ccc(NC(=O)C4CC4)cc3)n2)n[nH]1 [tozasertib]
Method in brief: as §1

Measured: log2 fold change

PEX11B (UniProt O96011)
inactive: [1] 0.021 | [2] -0.038 | [3] -0.009 | [4] -0.076 | [5] -0.071 | [6] -0.063 | [7] -0.037 | [8] 0.019 | [9] 0.023 | [10] 0.004 | [11] -0.042 | [12] 0.02 | [13] 0.148 | [14] -0.012 | [15] -0.073 | [16] 0.014 | [17] 0.002 | [18] 0.07

PCK2 (UniProt Q16822)
active: [1] -0.339
inactive: [2] -0.007 | [3] 0.045 | [4] -0.044 | [5] -0.035 | [6] 0.024 | [7] -0.025 | [8] 0.027 | [9] -0.045 | [10] 0.011 | [11] 0.009 | [12] 0.17 | [13] 0.01 | [14] -0.098 | [15] 0 | [16] -0.012 | [17] 0 | [18] 0.076

PDXP (UniProt Q96GD0)
inactive: [1] -0.01 | [2] -0.058 | [3] -0.018 | [4] 0.017 | [5] -0.089 | [6] 0.03 | [7] -0.004 | [8] 0.059 | [9] -0.03 | [10] 0.025 | [11] -0.01 | [12] 0.04 | [13] 0.071 | [14] 0.024 | [19] 0.02 | [15] -0.015 | [20] -0.061 | [16] -0.068 | [17] 0.003 | [18] 0.013

PCNT (UniProt O95613)
inactive: [1] -0.228 | [2] 0.006 | [3] -0.001 | [4] 0.075 | [5] 0.02 | [6] 0.055 | [7] 0.085 | [8] 0.257 | [9] -0.174 | [10] 0.285 | [11] 0.119 | [12] 0.023 | [13] 0.09 | [14] 0.153 | [15] 0.06 | [16] -0.006 | [17] -0.023 | [18] -0.099

PAK1 isoform 2 (UniProt Q13153)
inactive: [1] 0.178 | [2] 0.04 | [3] 0.003 | [4] -0.155 | [5] 0.086 | [6] -0.007 | [7] -0.025 | [8] -0.098 | [9] -0.015 | [10] 0.183 | [11] 0.009 | [12] 0.054 | [13] 0.063 | [15] -0.098 | [16] 0.056 | [17] -0.155 | [18] 0.084
active: [14] -0.308

Retrieved one by one from above, 2 records:
PCNT (UniProt O95613)
inactive: [1] -0.228 | [2] 0.006 | [3] -0.001 | [4] 0.075 | [5] 0.02 | [6] 0.055 | [7] 0.085 | [8] 0.257 | [9] -0.174 | [10] 0.285 | [11] 0.119 | [12] 0.023 | [13] 0.09 | [14] 0.153 | [15] 0.06 | [16] -0.006 | [17] -0.023 | [18] -0.099

PAK1 isoform 2 (UniProt Q13153)
inactive: [1] 0.178 | [2] 0.04 | [3] 0.003 | [4] -0.155 | [5] 0.086 | [6] -0.007 | [7] -0.025 | [8] -0.098 | [9] -0.015 | [10] 0.183 | [11] 0.009 | [12] 0.054 | [13] 0.063 | [15] -0.098 | [16] 0.056 | [17] -0.155 | [18] 0.084
active: [14] -0.308

Later entries

PCBP1 (UniProt Q15365)
inactive: [1] 0.076 | [2] -0.036 | [3] 0.102 | [4] -0.044 | [5] -0.015 | [6] -0.014 | [7] -0.003 | [8] -0.003 | [9] -0.022 | [10] -0.036 | [11] 0.012 | [12] 0 | [13] 0.094 | [14] -0.012 | [15] -0.12 | [16] 0.07 | [17] -0.016 | [18] 0.028

PARP16 isoform 3 (UniProt Q8N5Y8)
inactive: [1] -0.029 | [2] -0.13 | [3] 0.039 | [4] -0.056 | [5] -0.075 | [6] -0.097 | [7] 0.011 | [8] -0.03 | [9] 0.071 | [10] -0.008 | [11] -0.008 | [12] 0.076 | [13] -0.021 | [14] 0.079 | [15] 0.081 | [16] -0.081 | [17] 0.072

PCCB isoform 2 (UniProt P05166)
inactive: [1] -0.006 | [2] 0.014 | [3] -0.002 | [4] -0.038 | [5] -0.005 | [6] 0.036 | [7] -0.045 | [8] 0.028 | [9] 0.049 | [10] -0.03 | [11] 0.013 | [12] 0.011 | [13] 0.065 | [14] -0.013 | [19] 0.042 | [15] 0.016 | [20] 0.025 | [16] 0.022 | [17] -0.002 | [18] 0.01

PAPSS1 (UniProt O43252)
inactive: [1] -0.041 | [2] -0.031 | [3] 0.041 | [4] -0.079 | [5] -0.03 | [6] 0.005 | [7] -0.016 | [8] 0.042 | [9] -0.024 | [10] 0.062 | [11] 0.084 | [12] 0.021 | [13] 0.043 | [14] -0.104 | [19] -0.013 | [15] -0.092 | [20] -0.017 | [16] 0.004 | [17] -0.021 | [18] -0.011

PDS5B (UniProt Q9NTI5)
active: [20] -0.604
inactive: [1] 0.065 | [2] 0.104 | [3] 0.037 | [4] -0.07 | [5] -0.05 | [6] -0.188 | [7] 0.123 | [8] 0.078 | [9] -0.206 | [10] 0.066 | [11] 0.03 | [12] -0.229 | [13] 0.222 | [14] 0.041 | [15] -0.149 | [16] 0.208 | [17] -0.074 | [18] -0.225

PDSS1 (UniProt Q5T2R2)
inactive: [1] -0.043 | [2] 0.039 | [3] 0.153 | [4] 0.093 | [5] 0.026 | [6] -0.056 | [7] 0.035 | [8] 0.025 | [9] -0.006 | [10] 0.139 | [11] 0.073 | [12] 0.063 | [13] -0.017 | [14] -0.085 | [19] -0.026 | [15] 0.029 | [20] 0.024 | [16] 0.074 | [17] 0.064 | [18] 0.024

PCTP (UniProt Q9UKL6)
inactive: [1] -0.007 | [2] -0.175 | [3] -0.066 | [4] 0.029 | [5] -0.081 | [7] -0.024 | [8] -0.031 | [9] 0.052 | [11] 0.094 | [12] -0.135 | [13] 0.031 | [14] 0.003 | [15] 0.029 | [16] -0.033 | [17] -0.048 | [18] 0.015
active: [6] -0.239 | [10] 0.392

PDCD2L (UniProt Q9BRP1)
inactive: [1] 0.085 | [2] 0.014 | [3] -0.033 | [4] -0.031 | [5] -0.033 | [6] 0 | [7] -0.09 | [8] -0.018 | [9] -0.048 | [10] -0.062 | [11] -0.059 | [12] -0.048 | [13] -0.083 | [14] 0.068 | [15] 0.225 | [16] 0.097 | [17] -0.058 | [18] 0.062

PAK4 (UniProt O96013)
inactive: [1] -0.106 | [2] 0.068 | [3] 0.03 | [4] -0.021 | [5] 0.153 | [6] 0.195 | [7] 0 | [8] 0.075 | [9] -0.047 | [10] 0.072 | [11] -0.028 | [12] -0.033 | [13] 0.058 | [14] -0.017 | [15] -0.028 | [16] 0.021 | [17] -0.042 | [18] -0.111

PAK3 isoform 3 (UniProt O75914)
inactive: [1] -0.012 | [2] -0.117 | [3] 0.016 | [4] -0.013 | [5] -0.051 | [6] -0.019 | [7] 0.006 | [8] -0.005 | [9] 0.011 | [10] -0.037 | [11] 0.013 | [12] 0.044 | [13] -0.017 | [14] -0.085 | [19] 0.021 | [15] 0.051 | [16] -0.028 | [17] 0.002 | [18] 0.124

PECAM1 (UniProt P16284)
inactive: [1] 0.018 | [2] 0.114 | [3] -0.002 | [4] -0.029 | [5] -0.053 | [6] 0.025 | [7] 0.02 | [8] 0.063 | [9] -0.021 | [10] 0.12 | [11] 0.086 | [12] 0.145 | [13] 0.157 | [14] 0.034 | [15] -0.001 | [16] -0.03 | [17] -0.025 | [18] 0.099

PEX1 (UniProt O43933)
inactive: [1] -0.011 | [2] -0.069 | [3] 0.02 | [4] -0.003 | [5] -0.022 | [6] 0.023 | [7] 0.072 | [8] 0.055 | [9] 0.038 | [10] 0.061 | [11] 0.042 | [12] 0.038 | [13] -0.018 | [14] -0.013 | [19] 0.034 | [15] -0.062 | [20] 0.034 | [16] 0.029 | [17] -0.029 | [18] 0.056
